These are yes or no findings as the source states them, for the method shown. In cells and extracts the contact can be indirect. Some entries that bind do so weakly or less than the wild type.
Biological target: PI3K p110α (human (endogenous in T24 and 5637)) (UniProt P42336)
Experiment: co-IP; antibodies on magnetic beads (Bio-Rad SureBeads) incubated with extracts of T24 and 5637 cells, eluate analysed by western blot; done in both directions (Derlin-1 and p110α immune complexes); Derlin-1 siRNA decreased the interaction

Chains of the proteins cited; added tags and fusions are not shown.
UniProt P42336: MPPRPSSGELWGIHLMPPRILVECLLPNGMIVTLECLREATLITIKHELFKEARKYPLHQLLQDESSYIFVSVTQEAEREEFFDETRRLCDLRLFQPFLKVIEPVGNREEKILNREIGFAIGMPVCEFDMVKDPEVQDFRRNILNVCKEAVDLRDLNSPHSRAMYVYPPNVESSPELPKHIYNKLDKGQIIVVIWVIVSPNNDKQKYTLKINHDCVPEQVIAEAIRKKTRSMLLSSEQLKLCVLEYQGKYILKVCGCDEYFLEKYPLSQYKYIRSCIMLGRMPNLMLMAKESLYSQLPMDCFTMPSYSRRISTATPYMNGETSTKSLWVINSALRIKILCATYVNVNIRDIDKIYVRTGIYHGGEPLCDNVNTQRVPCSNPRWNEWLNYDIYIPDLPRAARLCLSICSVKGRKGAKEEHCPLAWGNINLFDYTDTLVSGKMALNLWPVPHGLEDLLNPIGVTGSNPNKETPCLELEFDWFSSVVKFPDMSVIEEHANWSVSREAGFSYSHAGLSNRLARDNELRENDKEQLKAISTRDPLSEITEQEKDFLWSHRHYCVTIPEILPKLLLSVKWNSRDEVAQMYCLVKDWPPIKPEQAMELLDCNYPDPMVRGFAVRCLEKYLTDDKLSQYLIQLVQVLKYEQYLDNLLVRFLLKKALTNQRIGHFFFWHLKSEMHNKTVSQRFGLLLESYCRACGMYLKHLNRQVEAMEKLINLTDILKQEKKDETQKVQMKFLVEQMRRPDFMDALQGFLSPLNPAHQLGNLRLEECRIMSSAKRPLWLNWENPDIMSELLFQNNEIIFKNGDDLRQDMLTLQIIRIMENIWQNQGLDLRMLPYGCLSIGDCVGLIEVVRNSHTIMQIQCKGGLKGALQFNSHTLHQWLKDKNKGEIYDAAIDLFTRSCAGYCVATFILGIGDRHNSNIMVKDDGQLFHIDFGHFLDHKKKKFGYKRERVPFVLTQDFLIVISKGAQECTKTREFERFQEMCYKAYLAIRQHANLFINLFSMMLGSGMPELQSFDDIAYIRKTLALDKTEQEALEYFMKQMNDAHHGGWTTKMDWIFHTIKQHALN

binding: binds
B1: Derlin-1 (protein, UniProt Q9BUN8 1-251)
chain: MSDIGDWFRSIPAITRYWFAATVAVPLVGKLGLISPAYLFLWPEAFLYRFQIWRPITATFYFPVGPGTGFLYLVNLYFLYQYSTRLETGAFDGRPADYLFMLLFNWICIVITGLAMDMQLLMIPLIMSVLYVWAQLNRDMIVSFWFGTRFKACYLPWVILGFNYIIGGSVINELIGNLVGHLYFFLMFRYPMDLGGRNFLSTPQFLYRWLPSRRGGVSGFGVPPASMRRAADQNGGGGRHNWGQGFRLGDQ

From publication PMC5370022
